For the test, the target named is TCR-ζ chain (human (endogenous in Jurkat)) (UniProt P20963). Nature of the test: co-IP; wild-type and DLG1 KO Jurkat cells activated with anti-CD3; lysis in 150 mM NaCl, 20 mM Tris pH 7.5, 1% Triton X-100; immunoprecipitation with agarose-conjugated anti-TCR-ζ overnight at 4 °C; immunoblot. A general note: A western blot detects proteins with antibodies after separation by electrophoresis.

Amino acid sequences for entries named in this document (tags omitted).
UniProt P20963: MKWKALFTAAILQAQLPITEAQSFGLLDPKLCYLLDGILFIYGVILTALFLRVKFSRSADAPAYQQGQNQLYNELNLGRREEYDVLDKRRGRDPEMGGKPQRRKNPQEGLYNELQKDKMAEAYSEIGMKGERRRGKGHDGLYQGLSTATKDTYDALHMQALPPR
UniProt P29350: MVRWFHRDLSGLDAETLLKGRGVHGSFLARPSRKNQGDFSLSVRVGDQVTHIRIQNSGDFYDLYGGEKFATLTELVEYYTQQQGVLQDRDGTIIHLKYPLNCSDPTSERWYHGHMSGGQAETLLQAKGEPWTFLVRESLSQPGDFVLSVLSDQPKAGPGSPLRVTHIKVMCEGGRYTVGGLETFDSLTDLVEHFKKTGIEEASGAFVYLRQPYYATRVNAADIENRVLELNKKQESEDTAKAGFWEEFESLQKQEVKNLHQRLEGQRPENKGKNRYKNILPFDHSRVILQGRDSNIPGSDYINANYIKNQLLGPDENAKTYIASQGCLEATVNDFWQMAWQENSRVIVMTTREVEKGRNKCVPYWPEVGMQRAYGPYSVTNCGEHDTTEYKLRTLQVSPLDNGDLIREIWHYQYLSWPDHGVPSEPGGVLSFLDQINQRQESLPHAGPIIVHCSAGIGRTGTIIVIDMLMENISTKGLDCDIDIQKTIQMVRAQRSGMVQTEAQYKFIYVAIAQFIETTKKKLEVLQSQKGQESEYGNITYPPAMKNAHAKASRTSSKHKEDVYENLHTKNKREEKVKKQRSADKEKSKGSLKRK

These are yes or no findings as the source states them, for the method shown. Binding seen in cells or lysates may run through a third protein. Some binding calls cover weakened binding; strength is not graded here.

Regarding “SHP1 (from UniProt P29350 1-595) (enzyme)”, the binding result is reported as “binds”.

(Values after paper PMC8709471.)
